This is one part of the list.
Legend:
Assay in all cases: log2 fold change, soluble protein after heating vs DMSO (PISA); higher = thermal stabilisation; K562 cells, 10 uM, 30 min; active = over 0.2 and 3.5 SD of the protein, either way, in both replicates (recomputed)
erlotinib = compound: C#Cc1cccc(Nc2ncnc3cc(OCCOC)c(OCCOC)cc23)c1 [erlotinib]
Procedure, shortened: (§1)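 K562 cells at 2×10^6 cells/mL were treated with 10 μM compound for 30 min. Aliquots were heated for 3 min across 48°C-58°C, pooled, and extracted in PBS with 0.5% NP-40 at 4°C; soluble protein was the supernatant after 21,000xg for 90 min. Soluble protein was quantified by TMTpro 16plex LC-MS/MS with channel sums equalised, and reported as log2 fold change in thermal stability against DMSO controls, with values from duplicates.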

Protein sequences, listed by entry. Tags and fused reporters are not part of them. Lines headed by an entry give the natural chain unless they say otherwise; changes in a name come on top.
UniProt Q96EC8: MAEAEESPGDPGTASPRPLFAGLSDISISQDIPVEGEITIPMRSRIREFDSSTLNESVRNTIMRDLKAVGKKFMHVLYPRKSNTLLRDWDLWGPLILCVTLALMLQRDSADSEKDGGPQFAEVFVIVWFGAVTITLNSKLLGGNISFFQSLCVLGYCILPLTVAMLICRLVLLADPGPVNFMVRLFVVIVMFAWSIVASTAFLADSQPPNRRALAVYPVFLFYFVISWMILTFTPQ
UniProt Q9HBF4: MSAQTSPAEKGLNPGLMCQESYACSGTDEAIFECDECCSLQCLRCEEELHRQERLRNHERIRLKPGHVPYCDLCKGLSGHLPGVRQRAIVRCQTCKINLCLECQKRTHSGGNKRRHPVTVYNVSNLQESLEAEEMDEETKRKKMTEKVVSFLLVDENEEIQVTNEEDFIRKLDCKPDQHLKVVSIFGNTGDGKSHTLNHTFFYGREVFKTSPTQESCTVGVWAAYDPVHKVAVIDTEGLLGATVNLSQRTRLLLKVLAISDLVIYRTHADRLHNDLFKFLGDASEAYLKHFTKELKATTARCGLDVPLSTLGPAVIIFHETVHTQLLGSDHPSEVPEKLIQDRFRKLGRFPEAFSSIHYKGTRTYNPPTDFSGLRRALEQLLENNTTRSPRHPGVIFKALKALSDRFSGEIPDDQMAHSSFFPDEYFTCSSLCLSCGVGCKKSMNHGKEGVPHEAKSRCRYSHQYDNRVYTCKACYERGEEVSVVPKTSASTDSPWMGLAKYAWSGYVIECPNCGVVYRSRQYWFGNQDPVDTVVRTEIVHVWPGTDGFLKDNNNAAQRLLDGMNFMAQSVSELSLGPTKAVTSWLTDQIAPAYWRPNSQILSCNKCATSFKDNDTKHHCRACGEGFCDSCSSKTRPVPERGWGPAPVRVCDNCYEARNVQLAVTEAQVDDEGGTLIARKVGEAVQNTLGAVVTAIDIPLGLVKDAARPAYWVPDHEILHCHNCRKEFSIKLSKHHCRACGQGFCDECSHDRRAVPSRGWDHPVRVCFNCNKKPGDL
UniProt Q7Z739: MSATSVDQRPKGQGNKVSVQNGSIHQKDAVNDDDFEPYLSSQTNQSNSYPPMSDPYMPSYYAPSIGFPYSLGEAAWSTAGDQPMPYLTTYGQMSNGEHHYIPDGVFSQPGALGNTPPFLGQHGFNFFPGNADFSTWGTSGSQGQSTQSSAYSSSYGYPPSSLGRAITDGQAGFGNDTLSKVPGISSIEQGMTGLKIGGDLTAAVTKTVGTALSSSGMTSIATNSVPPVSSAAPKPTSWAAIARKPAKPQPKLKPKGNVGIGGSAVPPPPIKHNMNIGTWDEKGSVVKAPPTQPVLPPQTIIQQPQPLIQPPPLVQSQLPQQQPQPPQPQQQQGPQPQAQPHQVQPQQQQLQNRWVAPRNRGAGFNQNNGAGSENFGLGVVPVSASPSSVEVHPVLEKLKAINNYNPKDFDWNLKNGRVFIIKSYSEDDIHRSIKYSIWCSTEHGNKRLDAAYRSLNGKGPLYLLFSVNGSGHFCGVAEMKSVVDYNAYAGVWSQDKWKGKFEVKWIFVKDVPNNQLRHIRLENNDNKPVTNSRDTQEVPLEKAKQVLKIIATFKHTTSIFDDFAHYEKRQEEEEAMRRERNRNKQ
UniProt Q9ULJ6: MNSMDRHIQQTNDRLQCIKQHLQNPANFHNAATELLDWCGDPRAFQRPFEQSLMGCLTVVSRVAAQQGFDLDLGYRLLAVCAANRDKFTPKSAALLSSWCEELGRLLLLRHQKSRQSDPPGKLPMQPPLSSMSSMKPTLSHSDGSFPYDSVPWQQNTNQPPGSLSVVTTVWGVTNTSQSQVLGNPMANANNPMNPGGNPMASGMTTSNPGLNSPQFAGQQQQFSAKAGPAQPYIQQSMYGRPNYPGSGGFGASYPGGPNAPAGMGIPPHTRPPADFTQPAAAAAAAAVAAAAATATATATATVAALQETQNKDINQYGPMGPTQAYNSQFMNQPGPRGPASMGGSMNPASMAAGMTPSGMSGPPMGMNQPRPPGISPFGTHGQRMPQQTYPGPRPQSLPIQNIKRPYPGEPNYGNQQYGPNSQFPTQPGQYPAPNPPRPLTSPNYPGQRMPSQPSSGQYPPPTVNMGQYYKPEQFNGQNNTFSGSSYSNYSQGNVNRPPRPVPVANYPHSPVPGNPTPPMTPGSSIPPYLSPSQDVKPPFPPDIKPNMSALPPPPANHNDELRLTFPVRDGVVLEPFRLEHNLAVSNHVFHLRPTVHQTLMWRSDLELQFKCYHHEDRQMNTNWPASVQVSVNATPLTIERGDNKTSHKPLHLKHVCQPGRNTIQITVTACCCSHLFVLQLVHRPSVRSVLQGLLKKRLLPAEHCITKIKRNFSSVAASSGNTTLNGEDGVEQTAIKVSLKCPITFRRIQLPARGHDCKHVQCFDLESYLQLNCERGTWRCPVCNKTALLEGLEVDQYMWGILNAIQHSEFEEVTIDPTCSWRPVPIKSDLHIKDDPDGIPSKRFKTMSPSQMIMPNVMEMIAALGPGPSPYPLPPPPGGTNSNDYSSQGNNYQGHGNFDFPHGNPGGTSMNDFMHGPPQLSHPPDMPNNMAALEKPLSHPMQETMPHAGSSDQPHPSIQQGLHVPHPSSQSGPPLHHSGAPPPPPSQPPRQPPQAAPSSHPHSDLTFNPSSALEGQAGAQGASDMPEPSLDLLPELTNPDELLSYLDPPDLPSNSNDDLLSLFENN
UniProt Q969M3: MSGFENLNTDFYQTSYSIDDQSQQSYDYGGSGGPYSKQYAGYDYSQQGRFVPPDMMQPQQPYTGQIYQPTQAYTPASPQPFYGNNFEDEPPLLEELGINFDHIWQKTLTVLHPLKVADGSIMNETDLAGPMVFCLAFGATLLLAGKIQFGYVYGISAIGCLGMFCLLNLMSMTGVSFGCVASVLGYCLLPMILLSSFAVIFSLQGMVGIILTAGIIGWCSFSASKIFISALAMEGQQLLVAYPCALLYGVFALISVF
UniProt O95070: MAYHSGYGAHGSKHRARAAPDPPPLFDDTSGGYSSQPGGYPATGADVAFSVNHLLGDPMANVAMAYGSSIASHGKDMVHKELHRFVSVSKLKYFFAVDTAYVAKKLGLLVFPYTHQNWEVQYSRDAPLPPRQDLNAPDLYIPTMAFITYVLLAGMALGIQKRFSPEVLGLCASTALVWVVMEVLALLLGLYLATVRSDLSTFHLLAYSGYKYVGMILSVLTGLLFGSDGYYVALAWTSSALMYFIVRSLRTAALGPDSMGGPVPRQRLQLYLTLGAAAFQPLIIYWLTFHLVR
UniProt O43543: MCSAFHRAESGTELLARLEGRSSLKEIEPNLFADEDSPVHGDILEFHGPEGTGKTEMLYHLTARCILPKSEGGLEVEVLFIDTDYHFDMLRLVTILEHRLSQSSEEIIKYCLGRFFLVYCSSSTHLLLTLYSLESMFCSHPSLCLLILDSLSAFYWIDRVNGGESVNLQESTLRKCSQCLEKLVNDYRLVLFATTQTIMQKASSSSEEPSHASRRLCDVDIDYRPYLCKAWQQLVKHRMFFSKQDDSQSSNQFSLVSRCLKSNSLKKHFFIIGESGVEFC
UniProt O60315: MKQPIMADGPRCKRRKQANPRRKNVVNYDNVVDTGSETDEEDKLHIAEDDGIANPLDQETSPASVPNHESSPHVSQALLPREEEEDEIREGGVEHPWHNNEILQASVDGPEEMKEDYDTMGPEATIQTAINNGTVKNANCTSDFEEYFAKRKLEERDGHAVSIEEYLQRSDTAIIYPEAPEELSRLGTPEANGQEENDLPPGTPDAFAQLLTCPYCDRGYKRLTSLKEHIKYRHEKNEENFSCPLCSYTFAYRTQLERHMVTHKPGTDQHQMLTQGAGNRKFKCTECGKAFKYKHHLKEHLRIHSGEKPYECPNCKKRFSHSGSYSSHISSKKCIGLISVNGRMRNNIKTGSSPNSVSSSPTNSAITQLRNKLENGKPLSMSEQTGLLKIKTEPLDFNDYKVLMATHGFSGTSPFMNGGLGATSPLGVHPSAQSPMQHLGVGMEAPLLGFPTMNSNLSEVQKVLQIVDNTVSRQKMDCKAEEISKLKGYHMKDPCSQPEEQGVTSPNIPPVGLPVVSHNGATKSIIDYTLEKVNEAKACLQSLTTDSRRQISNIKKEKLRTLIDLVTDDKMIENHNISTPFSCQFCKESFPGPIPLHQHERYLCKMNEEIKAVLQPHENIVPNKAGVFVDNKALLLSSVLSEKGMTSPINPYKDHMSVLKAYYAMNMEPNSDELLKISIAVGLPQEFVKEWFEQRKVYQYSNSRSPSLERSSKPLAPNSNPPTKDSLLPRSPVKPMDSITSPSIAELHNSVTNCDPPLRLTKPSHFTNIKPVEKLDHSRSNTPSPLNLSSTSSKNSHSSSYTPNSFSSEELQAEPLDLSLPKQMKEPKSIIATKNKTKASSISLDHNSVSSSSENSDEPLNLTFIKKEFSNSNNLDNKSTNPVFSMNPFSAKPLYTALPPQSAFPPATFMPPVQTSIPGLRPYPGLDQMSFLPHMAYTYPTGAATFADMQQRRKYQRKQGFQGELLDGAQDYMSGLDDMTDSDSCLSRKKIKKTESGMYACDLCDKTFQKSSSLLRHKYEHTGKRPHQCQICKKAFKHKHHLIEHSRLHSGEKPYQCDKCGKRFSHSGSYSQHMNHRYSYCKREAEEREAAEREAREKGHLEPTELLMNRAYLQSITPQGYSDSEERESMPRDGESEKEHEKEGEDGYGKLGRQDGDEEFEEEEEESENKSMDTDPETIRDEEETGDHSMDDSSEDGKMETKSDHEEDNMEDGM
UniProt P18887, whole entry, looked up: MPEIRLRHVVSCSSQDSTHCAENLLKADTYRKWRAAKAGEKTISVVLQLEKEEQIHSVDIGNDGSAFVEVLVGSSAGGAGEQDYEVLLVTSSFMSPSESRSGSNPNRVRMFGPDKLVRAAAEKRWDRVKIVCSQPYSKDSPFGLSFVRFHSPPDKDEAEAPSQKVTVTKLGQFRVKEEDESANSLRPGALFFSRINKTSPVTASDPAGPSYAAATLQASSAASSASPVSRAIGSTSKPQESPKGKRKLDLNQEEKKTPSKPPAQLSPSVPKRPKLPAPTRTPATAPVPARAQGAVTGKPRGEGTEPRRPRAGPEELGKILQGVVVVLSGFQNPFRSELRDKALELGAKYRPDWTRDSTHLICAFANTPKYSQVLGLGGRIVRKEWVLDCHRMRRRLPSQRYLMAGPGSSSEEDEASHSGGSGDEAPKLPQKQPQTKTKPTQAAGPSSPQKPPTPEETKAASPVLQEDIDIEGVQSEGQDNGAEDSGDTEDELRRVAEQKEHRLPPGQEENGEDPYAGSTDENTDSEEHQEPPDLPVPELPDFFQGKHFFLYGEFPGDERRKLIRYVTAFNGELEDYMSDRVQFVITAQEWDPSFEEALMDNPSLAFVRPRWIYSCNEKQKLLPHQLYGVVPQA
UniProt Q9BYJ9: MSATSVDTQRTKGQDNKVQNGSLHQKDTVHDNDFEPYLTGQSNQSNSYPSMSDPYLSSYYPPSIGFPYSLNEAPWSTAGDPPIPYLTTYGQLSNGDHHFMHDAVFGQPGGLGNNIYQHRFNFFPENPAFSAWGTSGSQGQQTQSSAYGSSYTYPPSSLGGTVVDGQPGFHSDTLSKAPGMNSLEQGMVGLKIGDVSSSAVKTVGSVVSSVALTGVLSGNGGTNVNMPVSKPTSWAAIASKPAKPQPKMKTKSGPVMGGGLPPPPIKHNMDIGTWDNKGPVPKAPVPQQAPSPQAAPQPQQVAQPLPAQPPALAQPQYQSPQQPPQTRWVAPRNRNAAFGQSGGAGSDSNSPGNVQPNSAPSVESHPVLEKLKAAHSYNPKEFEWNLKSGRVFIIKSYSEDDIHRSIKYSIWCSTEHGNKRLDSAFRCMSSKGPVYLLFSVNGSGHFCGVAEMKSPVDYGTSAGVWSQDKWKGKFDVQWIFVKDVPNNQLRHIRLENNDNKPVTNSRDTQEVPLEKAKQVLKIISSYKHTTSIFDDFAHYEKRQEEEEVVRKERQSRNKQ
UniProt Q86U90: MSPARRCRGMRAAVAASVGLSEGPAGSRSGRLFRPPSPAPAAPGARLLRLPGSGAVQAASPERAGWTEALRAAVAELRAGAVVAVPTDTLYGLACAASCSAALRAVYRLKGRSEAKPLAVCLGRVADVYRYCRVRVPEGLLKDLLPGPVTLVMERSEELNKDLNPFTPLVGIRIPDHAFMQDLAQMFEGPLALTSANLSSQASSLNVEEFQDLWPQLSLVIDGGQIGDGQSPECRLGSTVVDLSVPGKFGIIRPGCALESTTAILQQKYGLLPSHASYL
UniProt Q5BJH7: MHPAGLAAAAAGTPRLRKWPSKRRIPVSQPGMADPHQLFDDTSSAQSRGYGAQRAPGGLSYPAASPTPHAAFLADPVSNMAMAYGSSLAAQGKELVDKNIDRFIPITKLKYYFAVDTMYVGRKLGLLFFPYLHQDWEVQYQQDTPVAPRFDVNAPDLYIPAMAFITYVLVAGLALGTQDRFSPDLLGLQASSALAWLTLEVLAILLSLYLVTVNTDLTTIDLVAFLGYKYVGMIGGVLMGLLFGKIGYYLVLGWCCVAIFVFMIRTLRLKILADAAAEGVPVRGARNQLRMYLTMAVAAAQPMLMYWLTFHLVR

[1] = compound: C/C(=N\NC(=O)C1=CC(=CC=C1)S(=O)(=O)N2CCOCC2)/C3=C(C=CC(=C3)Cl)O
Procedure, shortened: as §1

[2] = compound: C1=CC(=C(C=C1Cl)C2=NC3=NC=CN=C3C(=N2)NC4=CC=NC=C4)F
Procedure, shortened: as §1

[3] = compound: C1=CC(=CC=C1C2=NC3=C(N2)C=C(C=C3)C(=O)N)OC4=CC=C(C=C4)Cl
Procedure, shortened: as §1

[4] = compound: C1=CC2=C(C=CC(=C2)/C=C\3/C(=O)NC(=NCC4=CC=CS4)S3)N=C1
Procedure, shortened: as §1

[5] = compound: C1=CC2=NC=CN=C2C=C1/C=C/3\C(=O)NC(=O)S3
Procedure, shortened: as §1

[6] = compound: C1=CC=C(C=C1)C2=NC(=C(N2)C3=CC=NC=C3)C4=CC(=C(C=C4)Cl)O
Procedure, shortened: as §1

[7] = compound: C1=CC=C2C(=C1)C3=NNC4=CC=CC(=C43)C2=O
Procedure, shortened: as §1

[8] = compound: C1CCN(C1)C(=O)NC2=CC=CC(=C2)NC3=NC=C(C(=N3)NCCC4=CN=CN4)Br
Procedure, shortened: as §1

[9] = compound: C1CN(CCC1(CC2=CC=C(C=C2)Cl)N)C3=NC=NC4=C3C=CN4
Procedure, shortened: as §1

Measured: log2 fold change

YIPF6 (UniProt Q96EC8)
inactive: erlotinib -0.017 | [1] -0.067 | [2] 0.138 | [3] 0.005 | [4] 0.042 | [5] 0.025 | [6] -0.041 | [7] -0.018 | [8] -0.013 | [9] -0.015

ZFYVE1 (UniProt Q9HBF4)
inactive: erlotinib -0.008 | [1] 0.07 | [2] 0.199 | [3] 0.016 | [4] 0.147 | [5] 0.074 | [6] -0.034 | [7] -0.004 | [8] 0.095 | [9] -0.076

YTHDF3 (UniProt Q7Z739)
inactive: erlotinib -0.035 | [1] 0.013 | [2] -0.044 | [3] 0.044 | [4] 0.095 | [5] -0.009 | [6] -0.02 | [7] 0.014 | [8] -0.003 | [9] -0.02

ZMIZ1 (UniProt Q9ULJ6)
inactive: erlotinib -0.007 | [1] 0.036 | [2] -0.01 | [3] -0.036 | [4] 0.009 | [5] 0.038 | [6] -0.063 | [7] 0.002 | [8] -0.038 | [9] 0.049

ZNF207 isoform 2 (UniProt O43670)
inactive: erlotinib -0.194 | [1] -0.078 | [2] 0.056 | [3] -0.097 | [4] -0.322 | [5] 0.083 | [6] 0.04 | [7] 0.123 | [8] 0.022 | [9] -0.144

ZFAND2B (UniProt Q8WV99)
inactive: erlotinib 0.079 | [1] 0.075 | [2] -0.017 | [3] 0.018 | [4] 0.002 | [5] 0.011 | [6] -0.02 | [7] -0.06 | [8] -0.053 | [9] 0.027

XPO6 (UniProt Q96QU8)
active: [2] -0.465
inactive: erlotinib 0.07 | [1] 0.056 | [3] -0.055 | [4] 0.093 | [5] -0.15 | [6] -0.01 | [7] -0.008 | [8] 0.087 | [9] 0.02

YIPF5 isoform 3 (UniProt Q969M3)
inactive: erlotinib 0.011 | [1] 0.016 | [2] 0.024 | [3] 0.012 | [4] -0.008 | [5] 0.009 | [6] -0.05 | [7] -0.153 | [8] 0.033 | [9] 0.126

YIF1A (UniProt O95070)
inactive: erlotinib -0.143 | [1] -0.048 | [3] -0.014 | [4] -0.034 | [5] 0.039 | [6] 0.118 | [7] -0.008 | [8] 0 | [9] 0.117

XRCC2 (UniProt O43543)
inactive: erlotinib -0.014 | [2] -0.046 | [3] 0.081

ZEB2 (UniProt O60315)
inactive: erlotinib 0.101 | [2] -0.099 | [3] 0.029 | [5] -0.177 | [6] -0.053 | [8] -0.106 | [9] -0.149

ZC3HAV1 (UniProt Q7Z2W4)
inactive: erlotinib 0.035 | [1] -0.009 | [2] -0.474 | [3] 0.045 | [4] -0.041 | [5] -0.071 | [6] -0.142 | [7] 0.065 | [8] -0.046 | [9] -0.012

XRCC1 (UniProt P18887)
inactive: erlotinib 0.036 | [1] -0.392 | [2] 0.04 | [3] 0.046 | [4] 0.304 | [6] -0.035 | [7] 0.042 | [8] 0.043 | [9] 0.117

XPC (UniProt Q01831)
inactive: erlotinib -0.014 | [1] 0.114 | [2] -0.072 | [3] 0.037 | [4] -0.088 | [6] -0.628 | [7] -0.028

YTHDF1 (UniProt Q9BYJ9)
inactive: erlotinib 0.031 | [2] -0.671 | [3] 0.02 | [5] 0.078

YRDC (UniProt Q86U90)
inactive: erlotinib 0.076 | [1] 0.02 | [2] 0.044 | [3] 0.002 | [4] 0.069 | [5] 0 | [6] 0.06 | [7] 0 | [8] -0.033 | [9] -0.021

Reprinted at random: 2 entries already listed
XPC (UniProt Q01831)
inactive: erlotinib -0.014 | [1] 0.114 | [2] -0.072 | [3] 0.037 | [4] -0.088 | [6] -0.628 | [7] -0.028

XRCC1 (UniProt P18887)
inactive: erlotinib 0.036 | [1] -0.392 | [2] 0.04 | [3] 0.046 | [4] 0.304 | [6] -0.035 | [7] 0.042 | [8] 0.043 | [9] 0.117

(listing goes on)

YIF1B (UniProt Q5BJH7)
inactive: erlotinib 0.062 | [1] -0.059 | [2] -0.054 | [3] -0.009 | [4] 0.066 | [5] -0.004 | [6] -0.006 | [7] 0.015 | [8] 0.004 | [9] 0.016
